{
  "sequences": {"note": "Protein sequences, listed by entry. Tags and fused reporters are not part of them. Residues count along the entry.", "UniProt P20029, residues 20-655": "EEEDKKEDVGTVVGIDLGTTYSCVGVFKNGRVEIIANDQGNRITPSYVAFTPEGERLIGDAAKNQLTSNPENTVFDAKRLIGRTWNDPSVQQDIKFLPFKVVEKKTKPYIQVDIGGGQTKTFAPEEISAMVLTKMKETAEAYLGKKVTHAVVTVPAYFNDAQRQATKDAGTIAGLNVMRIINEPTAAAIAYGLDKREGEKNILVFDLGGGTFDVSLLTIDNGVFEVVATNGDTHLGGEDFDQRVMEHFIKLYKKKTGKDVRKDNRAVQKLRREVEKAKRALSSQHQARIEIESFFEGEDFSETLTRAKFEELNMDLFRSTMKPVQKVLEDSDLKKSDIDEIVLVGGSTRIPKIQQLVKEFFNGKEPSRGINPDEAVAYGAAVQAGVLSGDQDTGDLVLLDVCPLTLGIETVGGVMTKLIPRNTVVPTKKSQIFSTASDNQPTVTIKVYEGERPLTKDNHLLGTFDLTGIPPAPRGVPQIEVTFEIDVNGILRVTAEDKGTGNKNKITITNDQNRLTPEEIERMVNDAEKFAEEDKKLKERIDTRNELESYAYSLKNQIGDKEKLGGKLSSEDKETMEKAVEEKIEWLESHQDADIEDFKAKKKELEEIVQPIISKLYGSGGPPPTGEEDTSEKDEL"},
  "source": "paper doi:10.1101/2020.01.01.892539",
  "note": "Results are given in words; binding and its absence hold for the method and conditions named. In cells and extracts the contact can be indirect. Some entries that bind do so weakly or less than the wild type.",
  "data": [
    {"target": "BiP-FLAG (BiP/GRP78 with a 3xFLAG tag inserted just upstream of the KDEL signal) (mouse) (UniProt P20029)", "test": "co-IP", "values": [
      {"binder": "GRP170 (protein, UniProt Q9JKR6 33-999) LAVMSVDLGSESMKVAIVKPGVPMEIVLNKESRRKTPVTVTLKENERFLGDSAAGMAIKNPKATLRYFQHLLGKQADNPHVALYRSRFPEHELIVDPQRQTVRFQISPQLQFSPEEVLGMVLNYSRSLAEDFAEQPIKDAVITVPAFFNQAERRAVLQAARMAGLKVLQLINDNTATALSYGVFRRKDINSTAQNVMFYDMGSGSTVCTIVTYQTVKTKEAGMQPQLQIRGVGFDRTLGGLEMELRLREHLAKLFNEQRKGQKAKDVRENPRAMAKLLREANRLKTVLSANADHMAQIEGLMDDVDFKAKVTRVEFEELCADLFDRVPGPVQQALQSAEMSLDQIEQVILVGGATRVPKVQEVLLKAVGKEELGKNINADEAAAMGAVYQAAALSKAFKVKPFVVRDAVIYPILVEFTREVEEEPGLRSLKHNKRVLFSRMGPYPQRKVITFNRYSHDFNFHINYGDLGFLGPEDLRVFGSQNLTTVKLKGVGESFKKYPDYESKGIKAHFNLDESGVLSLDRVESVFETLVEDSPEEESTLTKLGNTISSLFGGGTSSDAKENGTDAVQEEEESPAEGSKDEPAEQGELKEEAEPPAEETSQPPPSEPKGDAAREGEKPDEKESGDKPEAQKPNEKGQAGPEGAAPAPEEDKKPKPARKQKMVEEIGVELAVLDLPDLPEDELARSVQKLEELTLRDLEKQEREKAANSLEAFIFETQDKLYQPEYQEVSTEEQREEISGKLSATSTWLEDEGFGATTVMLKDKLAELRKLCQGLFFRVEERRKWPERLSALDNLLNHSSIFLKGARLIPEMDQVFTEVEMTTLEKVINDTWAWKNATLAEQAKLPATEKPVLLSKDIEAKMMALDREVQYLLNKAKFTKPRPRPKDKNGTRAEPPLNASAGDQEEKVIPPAGQTEEAKPILEPDKEETGTEPADSEPLELGGPGAGPEQEEQSAGQKRPSKNDEL", "binding": "binds"},
      {"binder": "PDIA6 (protein, UniProt Q922R8 20-440) LYSSSDDVIELTPSNFNREVIQSDGLWLVEFYAPWCGHCQRLTPEWKKAATALKDVVKVGAVNADKHQSLGGQYGVQGFPTIKIFGANKNKPEDYQGGRTGEAIVDAALSALRQLVKDRLGGRSGGYSSGKQGRGDSSSKKDVVELTDDTFDKNVLDSEDVWMVEFYAPWCGHCKNLEPEWAAAATEVKEQTKGKVKLAAVDATVNQVLASRYGIKGFPTIKIFQKGESPVDYDGGRTRSDIVSRALDLFSDNAPPPELLEIINEDIAKKTCEEHQLCVVAVLPHILDTGAAGRNSYLEVLLKLADKYKKKMWGWLWTEAGAQYELENALGIGGFGYPAMAAINARKMKFALLKGSFSEQGINEFLRELSFGRGSTAPVGGGSFPTITPREPWDGKDGELPVEDDIDLSDVELDDLEKDEL", "binding": "binds"},
      {"binder": "P58^IPK (protein, UniProt Q91YW3 32-504) GVNADVEKHLELGKKLLAAGQLADALSQFHAAVDGDPDNYIAYYRRATVFLAMGKSKAALPDLTKVIALKMDFTAARLQRGHLLLKQGKLDEAEDDFKKVLKSNPSEQEEKEAESQLVKADEMQRLRSQALDAFDGADYTAAITFLDKILEVCVWDAELRELRAECFIKEGEPRKAISDLKAASKLKSDNTEAFYKISTLYYQLGDHELSLSEVRECLKLDQDHKRCFAHYKQVKKLNKLIESAEELIRDGRYTDATSKYESVMKTEPSVAEYTVRSKERICHCFSKDEKPVEAIRICSEVLQMEPDNVNALKDRAEAYLIEEMYDEAIQDYEAAQEHNENDQQIREGLEKAQRLLKQSQKRDYYKILGVKRNAKKQEIIKAYRKLALQWHPDNFQNEEEKKKAEKKFIDIAAAKEVLSDPEMRKKFDDGEDPLDAESQQGGGGNPFHRSWNSWQGFNPFSSGGPFRFKFHFN", "binding": "binds"}
    ]}
  ]
}
